These results are taken from publication PMC10850381.

The chains behind the UniProt entries cited, without tags or fusion partners. Where a name states a change or a piece, a line headed by the entry shows the natural chain unless it says otherwise. Residues count along the entry.
UniProt P10909: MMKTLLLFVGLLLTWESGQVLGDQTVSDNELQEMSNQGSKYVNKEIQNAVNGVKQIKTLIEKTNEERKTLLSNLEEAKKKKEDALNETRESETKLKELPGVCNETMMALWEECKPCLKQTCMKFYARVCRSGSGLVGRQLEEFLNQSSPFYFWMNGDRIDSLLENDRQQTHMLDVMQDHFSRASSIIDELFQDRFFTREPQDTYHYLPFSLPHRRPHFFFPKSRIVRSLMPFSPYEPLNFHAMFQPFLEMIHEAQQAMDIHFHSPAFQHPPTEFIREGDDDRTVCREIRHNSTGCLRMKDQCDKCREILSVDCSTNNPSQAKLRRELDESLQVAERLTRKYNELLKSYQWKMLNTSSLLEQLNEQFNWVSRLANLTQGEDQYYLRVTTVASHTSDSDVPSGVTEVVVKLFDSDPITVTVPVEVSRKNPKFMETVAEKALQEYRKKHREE
UniProt P10643, residues 23-843: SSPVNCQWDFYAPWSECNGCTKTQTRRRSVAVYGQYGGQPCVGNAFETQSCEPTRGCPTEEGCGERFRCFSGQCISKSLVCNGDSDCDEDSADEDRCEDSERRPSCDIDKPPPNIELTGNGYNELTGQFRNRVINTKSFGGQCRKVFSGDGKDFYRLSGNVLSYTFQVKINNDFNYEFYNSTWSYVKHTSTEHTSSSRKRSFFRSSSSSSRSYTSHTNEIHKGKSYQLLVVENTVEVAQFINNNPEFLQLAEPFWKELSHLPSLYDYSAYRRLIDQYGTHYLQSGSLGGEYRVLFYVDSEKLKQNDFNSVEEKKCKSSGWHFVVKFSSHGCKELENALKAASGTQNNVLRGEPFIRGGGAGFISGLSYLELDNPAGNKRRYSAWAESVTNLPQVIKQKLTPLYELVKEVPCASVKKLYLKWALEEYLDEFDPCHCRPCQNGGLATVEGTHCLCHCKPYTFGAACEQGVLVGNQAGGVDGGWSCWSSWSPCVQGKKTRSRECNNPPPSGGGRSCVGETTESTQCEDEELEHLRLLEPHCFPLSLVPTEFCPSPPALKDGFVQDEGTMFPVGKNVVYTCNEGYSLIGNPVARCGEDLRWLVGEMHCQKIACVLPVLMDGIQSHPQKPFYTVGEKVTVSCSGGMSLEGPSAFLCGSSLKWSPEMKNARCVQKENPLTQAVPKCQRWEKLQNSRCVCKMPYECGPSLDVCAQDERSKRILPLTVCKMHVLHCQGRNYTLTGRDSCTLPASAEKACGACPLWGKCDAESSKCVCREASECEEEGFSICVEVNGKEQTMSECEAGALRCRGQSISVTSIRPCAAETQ

These are yes or no findings as the source states them, for the method shown. For some of these results: Binding seen in cells or lysates may run through a third protein. Some entries that bind do so weakly or less than the wild type.

For assay [1], the target named is Clusterin (human (endogenous in normal human serum)) (UniProt P10909). As to the kind of experiment: co-IP; clusterin captured from NHS with anti-clusterin mAb MC-2D5; eluate on SDS-PAGE (non-reducing and reducing), blot probed with anti-C7 mAb M7-HB2H.
The target of assay [2] is Complement C7 (human (endogenous in normal human serum)) (UniProt P10643). Kind of assay: co-IP; C7 captured from NHS with anti-C7 mAbs M7-WU4-15 or M7-HB2H; eluate on SDS-PAGE (non-reducing and reducing), blot probed with anti-clusterin mAb MC-2D5.
The target is the same in assay [3]. As to the kind of experiment: ELISA; custom sandwich ELISA: plate-coated anti-C7 mAb captures C7, bound clusterin detected with HRP-conjugated anti-clusterin mAb; samples 30 min at room temperature: serum-purified C7, NHS, zymosan-activated NHS, EDTA plasma; complex in AU/mL against serum-purified C7 as standard.
Assay [4] has the same target. Kind of assay: SEC; pooled NHS, ultracentrifuged, on Superdex 200 HR 10/30 in PBS (150 mM NaCl, pH 7.4), 4°C; fractions analysed by non-reducing Western blot and by C7-CLU and C7 ELISA. In general terms: In gel filtration, larger molecules generally elute earlier.

Consider “Complement C7 (from UniProt P10643 23-843)”, for which, in assay [1], the binding entry was “binds”.
As for “Clusterin (from UniProt P10909 23-227; P10909 228-449)”, the binding result in assay [2], in assay [3] and in assay [4] was “binds” throughout.
